# Reference: US20180244653A1, “SELECTIVE ALPHA-7 NICOTINIC RECEPTOR AGONISTS AND METHODS FOR MAKING AND USING THEM” (THE REGENTS OF THE UNIVERSITY OF CALIFORNIA, priority 2015, published 2018)
# By UniProt entry, the sequences of proteins in these tests, tags left out. Where a name states a change or a piece, a line headed by the entry shows the natural chain unless it says otherwise.
# UniProt P23979: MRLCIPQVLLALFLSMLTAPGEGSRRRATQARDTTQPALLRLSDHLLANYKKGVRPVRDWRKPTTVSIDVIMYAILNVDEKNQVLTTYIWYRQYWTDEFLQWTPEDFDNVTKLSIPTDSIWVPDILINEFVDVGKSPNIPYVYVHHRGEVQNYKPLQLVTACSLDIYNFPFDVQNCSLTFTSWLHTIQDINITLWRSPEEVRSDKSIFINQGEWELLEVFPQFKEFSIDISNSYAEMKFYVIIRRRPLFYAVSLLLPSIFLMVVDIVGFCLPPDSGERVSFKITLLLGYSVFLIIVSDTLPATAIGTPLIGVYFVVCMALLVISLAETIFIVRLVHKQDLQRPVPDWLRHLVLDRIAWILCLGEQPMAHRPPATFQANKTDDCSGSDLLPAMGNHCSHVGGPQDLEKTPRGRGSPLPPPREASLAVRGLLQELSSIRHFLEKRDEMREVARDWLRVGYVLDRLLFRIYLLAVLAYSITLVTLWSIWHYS
# UniProt P36544: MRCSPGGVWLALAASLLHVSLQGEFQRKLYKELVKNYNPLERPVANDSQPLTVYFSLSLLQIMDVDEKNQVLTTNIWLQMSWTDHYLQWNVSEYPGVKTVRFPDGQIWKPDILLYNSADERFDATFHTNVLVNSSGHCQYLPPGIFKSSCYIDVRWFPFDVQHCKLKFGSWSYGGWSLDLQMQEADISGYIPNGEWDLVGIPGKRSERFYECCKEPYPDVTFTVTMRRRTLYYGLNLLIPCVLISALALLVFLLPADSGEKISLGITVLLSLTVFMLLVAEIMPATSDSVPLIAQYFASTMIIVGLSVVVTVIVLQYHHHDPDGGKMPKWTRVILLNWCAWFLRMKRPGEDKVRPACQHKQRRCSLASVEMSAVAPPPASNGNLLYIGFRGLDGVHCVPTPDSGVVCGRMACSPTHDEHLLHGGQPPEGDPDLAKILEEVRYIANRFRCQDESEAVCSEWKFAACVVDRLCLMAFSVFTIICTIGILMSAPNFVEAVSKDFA
# Some of these results come from one statement about several compounds together.
# Molecular target: α7/5HT3A chimera receptor (hα7/m5HT3A), used for α7-nAChRs (UniProt P23979+P36544, M226I/T225I)
# Assay: Intact cell competitive radioligand binding assay ([3H]-(±)-epibatidine, SPA), LGIC-CNiFERs
# Conditions: read-out: Kd ± SD, α7-nAChRs; >10 = did not pass initial screen at 10 μM
row,Structure (SMILES),Kd
1,"O=Cc1c[nH]c2ccc(-c3cn(C4CN5CCC4CC5)nn3)cc12 (stereo not drawn) [QND5, 5-(1-(Quinuclidin-3-yl)-1,2,3-triazol-4-yl)-indole-3-carbaldehyde]",> 2 µM
2,"COc1ccc2cc(-c3cn(C4CN5CCC4CC5)nn3)ccc2c1 (stereo not drawn) [QND6, 3-(4-(6-Methoxynaphthalen-2-yl)-1,2,3-triazol-1-yl)quinuclidine]",> 2 µM
3,"COC(=O)c1ccc2[nH]cc(-c3cn(C4CN5CCC4CC5)nn3)c2c1 (stereo not drawn) [QND11, Methyl 3-(1-(quinuclidin-3-yl)-1,2,3-triazol-4-yl)-indole-5-carboxylate]",> 2 µM
